Values quoted from earlier work, collected in patent US8703783B2, “Purinone derivatives as HM74A agonists” (Incyte Corporation, priority 2006, dated 2014).
For at least one compound, name, drawing or mass did not settle the structure.

Conditions: clinical studies; cited from earlier work

Structure (SMILES): CC(C)OC(=O)C(C)(C)Oc1ccc(C(=O)c2ccc(Cl)cc2)cc1 [Fenofibrate]
- decrease plasma triglyceride levels: 40-60%
